# Assay results taken from patent publication US12459898B2, “Polycationic amphiphiles as antimicrobial agents and methods using same” (Temple University-Of The Commonwealth System of Higher …, priority 2016, dated 2025).
# What was measured:
# Assay type in all cases: cell-based
# [1] = tested on: hospital-acquired methicillin-resistant Staphylococcus aureus HA-MRSA (ATCC 33591); experiment: microbe, parasite or virus in culture; conditions: 72 h, read-out: MIC, HA-MRSA
# Protocol: (§1) As used herein, the term “minimum inhibitory concentration (MIC)” refers to the lowest concentration of an antimicrobial agent that will inhibit the visible growth of a microorganism after overnight incubation. MIC values against bacteria, for example, the Gram-positive Staphylococcus aureus and Enterococcus faecalis and the Gram-negative Escherichia coli and Pseudomonas aeruginosa were determined by standard methods. See also P. A. Wayne, Methods for Dilution Antimicrobial Tests for Bacteria that Grow Aerobically; Approved Standard, Ninth Edition, 2012, CLSI Document M07-A9, Vol. 32 No. 2, which is incorporated by reference herein in its entirety. […]
# (§2) Compounds were serially diluted two-fold from stock solutions to yield twelve test concentrations. […] Plates were incubated statically at 37° C. for 72 hours upon which time wells were evaluated visually for bacterial growth. The MIC was determined as the lowest concentration of compound resulting in no bacterial growth visible to the naked eye, based on the majority of three independent experiments. […]
# [2] = tested on: Enterococcus faecalis (OG1RF); experiment: Minimum inhibitory concentration (MIC), E. faecalis; conditions: 72 h, read-out: MIC, E. faecalis
# Protocol: as §1, §2
# [3] = tested on: Escherichia coli (MC4100); experiment: Minimum inhibitory concentration (MIC), E. coli; conditions: 72 h, read-out: MIC, E. coli
# Protocol: as §1, §2
# [4] = tested on: Pseudomonas aeruginosa (PAO1); experiment: Minimum inhibitory concentration (MIC), P. aeruginosa; conditions: PAO1, 72 h, read-out: MIC, P. aeruginosa
# Protocol: as §1, §2
# [5] = tested on: methicillin-susceptible Staphylococcus aureus MSSA (SH1000); experiment: Minimum inhibitory concentration (MIC), S. aureus; conditions: 72 h, read-out: MIC, S. aureus
# Protocol: as §1, §2
# [6] = tested on: red blood cells (mechanically defibrinated sheep blood); experiment: Red blood cell (RBC) lysis assay (Lysis20)
# Protocol: For the tris-pyridine system, it was initially attempted to alkylate the commercially available O3Pyr, which led to no reaction under a number of SN2-type reaction conditions, presumably due to steric hindrance next to the nucleophilic pyridine nitrogen. The preparation of the “para” isomer via a precedented reductive amination shown in FIG. 4 (52%) was then carried out (Oh et al., 2007, Korean Chem. Soc, 28: 2193-2194, Abdel-Magid et al., 1996, J. Org. Chem, 61: 3849-3862). […] Attempts to prepare homologs led to variable yields and unacceptable purity. While not wishing to be bound by any particular theory it was hypothesized that this could have resulted from a fragmentation event driven by the central nitrogen, which might be circumvented by a change in the electronic distribution of the QAC. […] These amphiphiles were prepared in 71-97% yields, again after recrystallization or trituration. With 18 novel multi-pyridinium compounds in hand, varying in both alkyl chain length and number of pyridinium residues, both antimicrobial activity and toxicity of the compounds were examined, using red blood cell lysis as a model; CPC served as a comparison. […]
# RBC lysis assays were performed on mechanically defibrinated sheep blood (Hemostat Labs: DSB030). […] The absorbance of the supernatant was measured with a UV spectrometer at a 540 nm wavelength.
# [7] = tested on: community-acquired methicillin-resistant Staphylococcus aureus CA-MRSA (USA300-0114); experiment: Minimum inhibitory concentration (MIC), CA-MRSA
# Protocol: as §1, §2
compound,measurement,setting,value
"CCCCCCCCCCCCCCCC[n+]1ccccc1 [CPC, cetylpyridinium chloride, reference compound]",MIC,[1],1 µM
same,MIC,[2],1 µM
same,MIC,[3],8 µM
same,MIC,[4],63 µM
same,MIC,[5],0.5 µM
same,Lysis20 (highest concentration at which <20% of RBCs are lysed),"[6]; sheep RBCs in PBS, 37° C., 1 hour, absorbance 540 nm, Table 1",8 μm
same,lysis20 (hemolysis activity),"[6]; sheep RBCs, values restated in text",8 µM
same,MIC,"[7]; Staphylococcus aureus, 72 h, read-out: MIC, CA-MRSA",16 µM
same,"increase in MIC, CA-MRSA as compared to a non-resistant SA strain",[7]; hallmark of bacterial resistance,32 fold
